# Data as given in PubChem BioAssay AID1259405 (NCATS, 2018)
# Screen: 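Knock-downs that lift recombinant protein yield in hamster ovary cells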 (primary screen)
# System: Chinese hamster CHO-K1 ovary cells with stable secreted eGFP expression
# Reagent: single siRNA against mouse genes, 0.8 pmol siRNA per well (2 µl of 400 nM stock)
# Timing: 3 days
# Measured: 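Per-well intracellular GFP measured by laser scanning cytometry, plus viability from ATP luminescence, each relative to plate median of non-targeting control wells, in %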
# Direction: GFP, % of control: higher = more GFP per well, higher productivity; viability (ATP), % of control: higher = more viable cells (more ATP)
# Rule for the call: 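a knock-down is called active if GFP reaches 120% or more of non-targeting control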
# Shown is a random part of about 50,000 reagents. About 4,000 of all reagents (8%) count as active. 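Mouse siRNA library applied to hamster cells; one well for each siRNA.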 Reagents against one gene are numbered here.
gene symbol,reagent,"GFP, % of control","viability (ATP), % of control",Call
Rspry1,1,66.9,86.1,inactive
Rspry1,2,58,50.5,inactive
Rspry1,3,82.5,126,inactive
Iars2,1,77.4,78.1,inactive
Iars2,2,119,64.7,inactive
Ppp2r3d,1,81.7,66.3,inactive
Ppp2r3d,2,90.1,71,inactive
Ppp2r3d,3,79.6,86.6,inactive
Lsm4,1,111,82.3,inactive
Lsm4,2,45.7,64.2,inactive
Lsm4,3,113,98.9,inactive
Ncf2,1,84.2,86.8,inactive
Ncf2,2,40.6,38.6,inactive
Ncf2,3,76,69.1,inactive
Or2aa1,1,66.7,34.6,inactive
Or2aa1,2,121,66.2,active
Or2aa1,3,72.4,51.4,inactive
Diaph1,1,63.8,59.9,inactive
Diaph1,2,81.9,69.5,inactive
Diaph1,3,80.2,69,inactive
Artn,1,64.2,60.7,inactive
Artn,2,107,35.5,inactive
Artn,3,39.6,65.6,inactive
Coa5,1,88.9,84.4,inactive
Coa5,2,90.1,106,inactive
Coa5,3,135,161,active
Pnpla7,1,74.4,64.6,inactive
Pnpla7,2,92.1,100,inactive
Pnpla7,3,85.5,79.3,inactive
Fahd2a,1,57,42.5,inactive
Fahd2a,2,75.3,84.9,inactive
Fahd2a,3,45.6,44.2,inactive
Rundc3a,1,101,80.9,inactive
Rundc3a,2,96.3,90.9,inactive
Rundc3a,3,26,21.4,inactive
Rab2a,1,154,104,active
Rab2a,2,108,120,inactive
Rab2a,3,49.2,76.6,inactive
Ankib1,1,34,47.7,inactive
Ankib1,2,95.5,83.1,inactive
Ankib1,3,67.6,133,inactive
Kcnh2,1,91.3,76,inactive
Kcnh2,2,97,39,inactive
Kcnh2,3,76.9,80.9,inactive
Galm,1,76.9,71.5,inactive
Galm,2,77.3,59,inactive
Galm,3,54.6,76.7,inactive
Nptn,1,51.2,81.2,inactive
Nptn,2,66.5,80.7,inactive
Nptn,3,21.6,81.3,inactive
Rac1,1,95.7,69.3,inactive
Rac1,2,62.4,96.8,inactive
Rac1,3,69,99.5,inactive
Tgoln1,1,72.1,94.1,inactive
Tgoln1,2,76.1,52.5,inactive
Tgoln1,3,88.4,81,inactive
Trav3-3,1,38.9,33.9,inactive
Trav3-3,2,82.7,119,inactive
Trav3-3,3,83.3,97.9,inactive
Rnf216,1,103,73.7,inactive
Rnf216,2,82,73.8,inactive
Rnf216,3,40.9,65,inactive
Hrh2,1,74.4,59.1,inactive
Hrh2,2,57.9,81.7,inactive
Hrh2,3,71.4,85.6,inactive
Nlrx1,1,55.7,62.1,inactive
Nlrx1,2,87.3,58.1,inactive
Nlrx1,3,95,97.4,inactive
Slc23a1,1,69.5,76.7,inactive
Slc23a1,2,144,92.5,active
Slc23a1,3,58.9,70,inactive
Cyp2c70,1,82.6,57.1,inactive
Cyp2c70,2,109,98.5,inactive
Cyp2c70,3,84.3,81.9,inactive
Hspa1a,1,70.1,76.3,inactive
Hspa1a,2,79.9,78.3,inactive
Hspa1a,3,96.7,138,inactive
Casp2,1,90.4,69.2,inactive
Casp2,2,66.8,75.6,inactive
Casp2,3,88.2,93.5,inactive
Cfap97,1,62.1,80,inactive
Cfap97,2,73.3,82.1,inactive
Cfap97,3,83.3,87.3,inactive
Cul3,1,76.2,68.6,inactive
Cul3,2,126,58.2,active
Cul3,3,80.1,110,inactive
Ifit1bl2,1,180,116,active
Ifit1bl2,2,76.5,71.1,inactive
Ifit1bl2,3,71.9,77.3,inactive
Mrpl37,1,33.6,35.9,inactive
Mrpl37,2,52.2,74.9,inactive
Mrpl37,3,86.2,66.3,inactive
Esam,1,63.2,51.4,inactive
Esam,2,118,93.3,inactive
Crmp1,1,51,40.7,inactive
Crmp1,2,50.6,71,inactive
Crmp1,3,137,105,active
Rgl2,1,127,97.5,active
Rgl2,2,115,103,inactive
Rgl2,3,64.1,63.9,inactive
Chchd1,1,56.8,72.3,inactive
Chchd1,2,81.8,75.4,inactive
Chchd1,3,72.8,93.8,inactive
Arhgap6,1,50.5,49.1,inactive
Arhgap6,2,70,61.5,inactive
Arhgap6,3,83.1,73.8,inactive
Nfkb1,1,124,103,active
Nfkb1,2,69.8,72.1,inactive
Nfkb1,3,67.3,84,inactive

7 entries from above, set out differently.
Casp2 #2
- GFP, % of control: 66.8
- viability (ATP), % of control: 75.6
- Call: inactive

Casp2 #3
- GFP, % of control: 88.2
- viability (ATP), % of control: 93.5
- Call: inactive

Cfap97 #1
- GFP, % of control: 62.1
- viability (ATP), % of control: 80
- Call: inactive

Cfap97 #2
- GFP, % of control: 73.3
- viability (ATP), % of control: 82.1
- Call: inactive

Cfap97 #3
- GFP, % of control: 83.3
- viability (ATP), % of control: 87.3
- Call: inactive

Cul3 #1
- GFP, % of control: 76.2
- viability (ATP), % of control: 68.6
- Call: inactive

Cul3 #2
- GFP, % of control: 126
- viability (ATP), % of control: 58.2
- Call: active
